From PMC3779186
These are yes or no findings as the source states them, for the method shown. Binding seen in cells or lysates may run through a third protein. Some binding calls cover weakened binding; strength is not graded here.

Protein sequences, listed by entry. Tags and fused reporters are not part of them. Residues count along the entry.
UniProt P78324, residues 31-504: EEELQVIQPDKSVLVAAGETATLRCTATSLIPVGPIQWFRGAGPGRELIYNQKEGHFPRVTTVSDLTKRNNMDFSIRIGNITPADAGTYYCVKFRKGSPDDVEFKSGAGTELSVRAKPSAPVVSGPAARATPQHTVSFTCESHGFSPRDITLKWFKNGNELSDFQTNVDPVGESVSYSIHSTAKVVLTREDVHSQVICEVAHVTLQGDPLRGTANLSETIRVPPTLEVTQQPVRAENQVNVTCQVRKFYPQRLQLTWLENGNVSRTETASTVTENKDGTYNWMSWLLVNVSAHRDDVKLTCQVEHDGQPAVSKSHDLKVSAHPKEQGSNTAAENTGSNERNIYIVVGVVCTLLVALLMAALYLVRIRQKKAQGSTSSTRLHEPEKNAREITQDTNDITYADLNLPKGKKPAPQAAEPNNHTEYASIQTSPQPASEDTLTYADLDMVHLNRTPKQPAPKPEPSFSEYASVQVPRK
UniProt P40763: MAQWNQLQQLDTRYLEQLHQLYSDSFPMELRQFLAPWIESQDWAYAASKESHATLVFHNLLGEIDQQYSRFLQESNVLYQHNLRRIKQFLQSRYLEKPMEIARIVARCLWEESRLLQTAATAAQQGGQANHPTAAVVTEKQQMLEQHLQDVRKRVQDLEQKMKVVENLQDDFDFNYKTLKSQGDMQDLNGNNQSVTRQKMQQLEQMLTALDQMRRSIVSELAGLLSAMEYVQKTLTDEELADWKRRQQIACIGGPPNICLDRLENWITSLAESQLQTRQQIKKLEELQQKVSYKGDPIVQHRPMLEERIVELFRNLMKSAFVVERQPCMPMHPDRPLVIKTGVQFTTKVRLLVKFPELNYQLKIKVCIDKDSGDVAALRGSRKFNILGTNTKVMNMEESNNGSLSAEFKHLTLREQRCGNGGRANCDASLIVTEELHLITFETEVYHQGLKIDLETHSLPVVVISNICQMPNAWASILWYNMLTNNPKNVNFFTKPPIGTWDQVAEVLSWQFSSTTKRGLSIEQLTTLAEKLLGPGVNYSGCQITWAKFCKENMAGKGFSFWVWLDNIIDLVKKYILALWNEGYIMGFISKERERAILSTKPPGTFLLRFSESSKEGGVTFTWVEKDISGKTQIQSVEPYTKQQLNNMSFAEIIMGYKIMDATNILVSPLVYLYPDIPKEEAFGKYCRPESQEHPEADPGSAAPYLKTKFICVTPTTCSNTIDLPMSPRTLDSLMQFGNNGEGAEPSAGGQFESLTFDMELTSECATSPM

What was measured:
[1] = biological target: signal-regulatory-protein α (SIRPα) (human (endogenous in monocytes of healthy donors)) (UniProt P78324); assay: co-IP; anti-SIRPα precipitates from isolated monocytes; data not shown
[2] = biological target: signal-regulatory-protein α (SIRPα) (human (endogenous in monocytes of healthy donors)) (UniProt P78324); assay: co-IP; anti-SIRPα mAb and protein A-Sepharose on lysates (1% Nonidet P-40, 150 mM NaCl) of monocytes mixed with MCF-7 without or with 2 h of co-culture; immunoblot with anti-STAT3 and anti-phospho-STAT3 (Tyr705)

- binding [1]: binds
- binding [2]: binds
Substance: Signal Transducer and Activators of Transcription-3 (STAT3) (from UniProt P40763 1-770)
